Measured values as given in paper PMC4712133.
No constants are given. Whether binding was seen depends on the method and setting. Some binding calls cover weakened binding; strength is not graded here.

Sequences of proteins named here, by UniProt entry; tags and fusion partners are left off. Residues count along the entry.
UniProt Q969D9, residues 29-159: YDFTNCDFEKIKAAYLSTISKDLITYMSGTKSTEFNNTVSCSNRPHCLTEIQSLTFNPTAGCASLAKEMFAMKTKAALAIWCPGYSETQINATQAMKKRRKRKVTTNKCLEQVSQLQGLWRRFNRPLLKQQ
UniProt P03973, residues 26-132: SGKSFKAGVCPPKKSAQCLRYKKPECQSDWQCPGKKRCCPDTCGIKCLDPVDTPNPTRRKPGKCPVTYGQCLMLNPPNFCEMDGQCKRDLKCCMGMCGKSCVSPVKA
UniProt P10451, residues 17-314: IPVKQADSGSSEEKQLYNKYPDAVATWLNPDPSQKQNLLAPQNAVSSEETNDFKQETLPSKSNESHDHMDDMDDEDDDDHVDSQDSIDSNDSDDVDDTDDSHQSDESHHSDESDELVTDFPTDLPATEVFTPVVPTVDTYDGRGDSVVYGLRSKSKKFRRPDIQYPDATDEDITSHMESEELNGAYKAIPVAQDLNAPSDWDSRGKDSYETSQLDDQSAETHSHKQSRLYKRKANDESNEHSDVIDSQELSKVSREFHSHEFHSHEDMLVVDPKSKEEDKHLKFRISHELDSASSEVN

Experiments:
[1] = biological target: thymic stromal lymphopoietin (TSLP) (human) (UniProt Q969D9); test: ELISA; 96-well plate coated with 0.25, 1 and 2 ug of AMP; 2 ug OPN added, 2 h at 37°C; bound OPN detected with rabbit anti-OPN and HRP-conjugated secondary antibody, read at 405 nm; both purified
[2] = biological target: T1, human beta defensin-3 (hBD-3) (human) (UniProt P81534); test: as above
T1 sequence: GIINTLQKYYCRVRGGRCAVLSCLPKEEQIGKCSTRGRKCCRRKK

midkine (human) = biological target: T2, midkine (human) (UniProt P21741); test: as above
T2 sequence: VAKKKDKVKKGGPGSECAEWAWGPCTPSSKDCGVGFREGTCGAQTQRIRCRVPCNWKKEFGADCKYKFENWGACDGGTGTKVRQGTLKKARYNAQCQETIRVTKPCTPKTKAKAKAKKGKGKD

[3] = biological target: secretory leukocyte peptidase inhibitor (SLPI), recombinant human (human) (UniProt P03973); test: as above
[4] = biological target: osteopontin (OPN), recombinant human (human) (UniProt P10451); test: SPR; BIAcore X-100; human OPN immobilised on a CM5 chip by amine coupling; AMPs injected at 31.25-500 nM in 10 mM HEPES pH 7.5, 150 mM NaCl, 0.005% surfactant P20, 3.4 mM EDTA, 30 ul/min; 1:1 binding model with drifting baseline; both purified

Row | binding [1] | binding [2] | binding (midkine (human)) | binding [3] | binding [4] | Substance
1 | binds | binds | binds | binds | – | osteopontin (OPN), recombinant human (from UniProt P10451 17-314)
2 | – | – | – | – | binds | thymic stromal lymphopoietin (TSLP) (from UniProt Q969D9 29-159)
3 | – | – | – | – | binds | secretory leukocyte peptidase inhibitor (SLPI), recombinant human (from UniProt P03973 26-132)
